# Reference: PubChem BioAssay AID504467 (National Center for Advancing Translational Sciences (NCATS), 2011)
# The campaign covered roughly 330,000 compounds. About 7,700 (2.3%) were called active. This list was built around the results that the source calls inconclusive (neither active nor inactive); the mix of calls is not that of the screen. Calls come from the whole dose curve; as a rule, active = well fitted inhibition curve with a large enough effect; inconclusive = small, poorly fitted or top-dose-only effect, or effect the other way; inactive = flat fitted curve, though single readings scatter. Where the call is inconclusive, the potency comes from a doubtful curve fit.
# Test: qHTS screen for small molecules that inhibit ELG1-dependent DNA repair in human embryonic kidney (HEK293T) cells expressing luciferase-tagged ELG1; note: nearly all actives have a fitted effect of over 55% in size
# Conditions: HEK293T ELG1-luciferase reporter, luminescence, 16 h, DNA damage induced by 5-fluorouridine; series mostly up to 46.1 µM
# In short: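 In this reporter screen, reduction of luminescence relative to DMSO vehicle indicated activity. Compounds and 5-fluorouridine were added together to 2,000 cells per well, incubated for 16 hr at 37 °C, then developed with ONE-Glo.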
# Potency is the fitted concentration of half-maximal effect.
row,Structure (SMILES),Potency
1,CCc1noc(C)c1C(=O)OCC(=O)Nc1ncc(Cl)cc1Cl,inactive
2,Cc1ccc(C)c(N2CCN(S(=O)(=O)c3c(C)[nH]c(C)c3C(=O)N3CCCCC3)CC2)c1,"inconclusive: 20.6 µM [inhibitor, single point]"
3,O=C(c1sc2cc(F)ccc2c1Cl)N1CCN(c2ccccc2)CC1,inactive
4,O=C(CN1CCN(c2ccccn2)CC1)Nc1cccc(Cl)c1Cl,"inconclusive: 16.4 µM [inhibitor, partial curve]"
5,CC(=O)COc1ccc(-c2csnn2)cc1,"inconclusive: 16.4 µM [activator, single point]"
6,CCOC(=O)c1c(C)[nH]c(N=Nc2ccc(C)cc2)c1C,"inconclusive: 7.31 µM [activator, partial curve]"
7,CCNC(=O)C1CCCN1S(=O)(=O)c1ccc2ccccc2c1 (stereo unspecified),inactive
8,Cc1ccc2c(Cl)c(C(=O)N/N=C/c3cccn3C)sc2c1,"inconclusive: 8.2 µM [activator, partial curve]"
9,O=C1CC(=C2c3ccccc3-c3ccccc32)C(=O)N1CCCCN1CCN(c2ccccc2)CC1,inactive
10,CC1(C)CC(=O)c2c(O)cc(O)cc2O1,inactive
11,COc1cccc(/C=N/n2c(CO)nc3ccccc32)c1OC,"inconclusive: 29.1 µM [inhibitor, single point]"
12,Cc1cccc(C(=O)OC(C)C(=O)N2CCc3ccccc3C2)c1C (stereo unspecified),inactive
13,CCOC(=O)C1(CCOc2ccccc2)CCN(Cc2ccc(OC)c(COC)c2)CC1,"inconclusive: 2.91 µM [inhibitor, full curve]"
14,COc1ccc(CNC(=O)Nc2ccc(C)cc2C)cc1,"inconclusive: 29.1 µM [activator, partial curve, poor fit]"
15,CC(=O)Nc1ccc(NC(=O)CCC(=O)OCC(=O)c2ccc(F)cc2)cc1,inactive
16,CC1(C)CC(=O)/C(=C(\O)Cc2ccccc2)C(=NCCCCCC(=O)O)C1,"inconclusive: 18.4 µM [activator, single point]"
17,COc1ccc(NC2CCCN(C(=O)c3ccccc3N3CCOCC3)C2)cc1OC (stereo unspecified),inactive
18,Cc1cccc(OCC(=O)NC(=S)Nc2ccccc2N2CCOCC2)c1C,inactive
19,O=C(NCCC1=CCCCC1)c1ccc(-n2cncn2)cc1,"inconclusive: 11.2 µM [activator, partial curve]"
20,COc1ccc(N2CCN(C(=O)COCc3cc(-c4ccc5c(c4)OCO5)on3)CC2)cc1,"inconclusive: 29.1 µM [inhibitor, single point]"
21,O=C(COC(=O)c1cc(S(=O)(=O)N2CCOCC2)ccc1O)NCCc1ccccc1,inactive

# 3 entries already listed, sorted by number of heavy atoms, falling:
row,Structure (SMILES),Potency
4,O=C(CN1CCN(c2ccccn2)CC1)Nc1cccc(Cl)c1Cl,"inconclusive: 16.4 µM [inhibitor, partial curve]"
19,O=C(NCCC1=CCCCC1)c1ccc(-n2cncn2)cc1,"inconclusive: 11.2 µM [activator, partial curve]"
5,CC(=O)COc1ccc(-c2csnn2)cc1,"inconclusive: 16.4 µM [activator, single point]"
